Consider 167 variants from the RNAGym collection of RNA variant scans (doi:10.1126/science.aae0568).

B1: tRNA (parent)
chain: GUUCCGUUGGCGUAAUGGUAACGCGUCUCCCUCCUAAGGAGAAGACUGCGGGUUCGAGUCCCGUACGGAACG

This sample is rich in variants without activity.

In this data set the parent is B1. Briefly: yeast fitness relative to wild type (ratio to wild type); higher = fitter; tRNA-Arg(CCU), competitive growth, 37 C, YPD. Put shortly: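 Amplicons of the tRNA-Arg(CCU) gene were sequenced, 100-nucleotide paired-end, from the start population and from each end population of a pooled yeast competition. The competition, in six parallel replicates, lasted 24 hours in YPD at 37°C. Fitness relative to wild type was calculated from changes in genotype frequencies. Genotypes had to have ≥ 100 starting reads, and estimates < 0.5 were set to 0.5.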
In the case of G25A G58C A65G, the yeast fitness is 1.04.
Take G6A C27U C46A C55G: the yeast fitness is not above 0.5.
Regarding U2A C4U U8G C31A G44C A65G, the yeast fitness is not above 0.5.
Turning to C4G A40U A45U G51C G56C, the yeast fitness is not above 0.5.
The figure for A15C U19A G39A is 0.519; for G52C U54A C61U it is not above 0.5.
Turning to C31G A43U C60A A70G, the yeast fitness is not above 0.5.
The figure for C11U U26C U47A G50A is not above 0.5.
The result for U16G C34U A40G A43G C62A A69C reads not above 0.5; that for U7A A43C G51C, not above 0.5; that for C30G C31U G39C C61G, not above 0.5.
In the case of G6A U19G C60A, the yeast fitness was not above 0.5.
As to A36C C60U C62U A65C, the yeast fitness was not above 0.5.
The figure for G10A A45G U59C is 0.616; for C29G G38C A70C it is not above 0.5; for G12C A21C C46G C49G it is not above 0.5.
With G18A A42G, the yeast fitness was determined as 0.692.
Take U7A U13G: the yeast fitness is not above 0.5.
As for C11G U28C A43C, the yeast fitness is not above 0.5.
The result for G10C G12A C33A U47A C55A C61U reads not above 0.5.
C27G G41A A42C U59A: the yeast fitness was not above 0.5.
Regarding G9A A14C G25C G56A C66U, the yeast fitness is not above 0.5.
Consider U7C C22G C27U U59A, for which the yeast fitness is not above 0.5.
With A15C G63A A70U, the yeast fitness was not above 0.5.
The figure for C11G A42G C62G is not above 0.5; for G10C U47A A70C it is not above 0.5; for C5G A42U it is 0.683.
The result for G9A U13A reads 1.03.
Consider C5G U7A A20C U28C C60U A69U, for which the yeast fitness was not above 0.5.
Consider C4U C27A A37U G50A, for which the yeast fitness was not above 0.5.
The result for C11G G51A U53C reads not above 0.5; that for C5A A20G A37G, not above 0.5; that for C5G C33A G41C U54C, not above 0.5.
On to G6C C24A G52A, for which the yeast fitness is not above 0.5.
In the case of G6A C62A A70C, the yeast fitness came to 0.636.
Turning to U8C G23U A42G C60A, the yeast fitness was not above 0.5.
In the case of U7C C22U C27U A57U C61G, the yeast fitness was not above 0.5.
For the variant G50A C55G G67A, the yeast fitness was not above 0.5.
The figure for A15G C33G is 0.732.
The result for C22A U35C A40G reads not above 0.5; that for C4U U7C C27G, not above 0.5.
The figure for U16G A42G G48A is not above 0.5.
For the variant C22U C49U U54G C55G G67A A70G, the yeast fitness was not above 0.5.
For C5U G17C C24G G38C G51C U59G, the yeast fitness was not above 0.5.
Consider G9C C31U A57C A69C, for which the yeast fitness is not above 0.5.
As to C5U A21C C30G U35A G38C C60G C62A, the yeast fitness was not above 0.5.
The result for U8C G17A reads 0.711; that for U7C C46U C61A G67A, 0.561; that for C29G U32C A65U, not above 0.5.
In the case of C30U A70C, the yeast fitness was found to be 0.869.
For the variant C11U C27G C61A C66U, the yeast fitness was not above 0.5.
The result for C5G G12C U19A C31A reads not above 0.5; that for C24G A37U U47A U59A, not above 0.5; that for U13C C31U A70C, 0.756.
Take U28G A36C G38C: the yeast fitness was not above 0.5.
The figure for U3C G51C U59G is not above 0.5; for C4U C5G A14C G38C G67C it is not above 0.5; for C33A U35C C46U C49U G52C C61U C66U A69U it is 0.528.
With C4G C22G C24U G41A A57U C66A, the yeast fitness is not above 0.5.
Turning to C24U G25C C30U, the yeast fitness was not above 0.5.
The figure for C31A C34G A45U C66U is not above 0.5; for C31G A57C A65C it is not above 0.5; for A14U C49A C55G G56C it is not above 0.5.
The figure for U3G C11U U19C A20U A42C G63A A65C A69U is not above 0.5; for C31U G41U A57G A65G it is not above 0.5; for U2G A45C C49U C55U it is not above 0.5.
On to U3C C5U U8C U13C C29U C46A A65U C66A, for which the yeast fitness is not above 0.5.
The result for A40C A57G C61U reads 0.573.
The result for U8G C11G C34A G58C reads not above 0.5; that for A21G G23A C27G A37U A40U, not above 0.5.
The figure for G12A A20C U32A C34G A57C C66U is not above 0.5; for U2A U32C A36G it is 0.736; for G9C U26A U47C C49U G56A G67C A69G it is not above 0.5.
On to U2G A14C C27U U35A C61G, for which the yeast fitness is not above 0.5.
The result for U13C G18A C24A C61G reads not above 0.5; that for G18C U35A C61U, not above 0.5.
The figure for G51A C55U A65C is not above 0.5; for C4G A15U C33A G52C C55G it is not above 0.5; for G18C A21U U26C G51C it is 0.739.
The figure for C22U G25C U28C A36G G51A is not above 0.5; for C5U A20C C24A C60G it is not above 0.5.
In the case of U2A C11G U35G, the yeast fitness was not above 0.5.
As to C31A A42U A43U A65G G68A A70C, the yeast fitness was not above 0.5.
Consider U8C C46U G51C A69U, for which the yeast fitness was not above 0.5.
In the case of U3C C49G A65U, the yeast fitness amounted to 0.658.
The figure for C24G G50C A70G is not above 0.5.
In the case of U3A C4G C62U A70C, the yeast fitness is 0.754.
In the case of A15U C31U A36G, the yeast fitness worked out at 0.568.
The figure for G10A G23C C29U A36C is 0.532; for A15G C29G C31A it is not above 0.5.
The result for C4G U32G C55U C66G reads not above 0.5.
Turning to G12A C34A G51U G58A G63U, the yeast fitness was not above 0.5.
The figure for U19C G48C C66U is 0.712.
With C4U G10A A15C U59C A69G, the yeast fitness was not above 0.5.
For C30A C61A A65C, the yeast fitness worked out at 0.578.
The figure for G9A C34A A40G A65C is not above 0.5; for C22G C24G C66U A70C it is not above 0.5.
The figure for U7A G12A C31G U64A C66U G68C is not above 0.5; for G56U A65G it is 0.615; for C33G C61A C62U it is not above 0.5.
The result for U2C U28A A69U reads not above 0.5.
For the variant C5U A43U G44A C46A, the yeast fitness is not above 0.5.
The figure for C5U C46U U59G is 0.538.
The result for C46A U47G G50A reads 0.544; that for A14G C31G A37G, not above 0.5.
Take U3A G12A A20C C29G: the yeast fitness was not above 0.5.
The result for C22U U26A C66A reads not above 0.5; that for A21U A36U A45U, not above 0.5.
The figure for U35C G67A G68U is not above 0.5; for C4A A36C C49U it is not above 0.5; for G23A A36U G39C A65G C66U it is not above 0.5.
The figure for C30U C33G U47C A65C is not above 0.5; for C11A U26C C29G C31U C66A it is not above 0.5; for C5U A37U A42U A69U it is not above 0.5.
For the variant C22A C24U G44C, the yeast fitness was not above 0.5.
U2A C11A G51A C61A: the yeast fitness is not above 0.5.
As to U2C G10C C31U A43G U54C, the yeast fitness was not above 0.5.
The result for U26A U47A C66U reads not above 0.5.
Take C30G A42U C55U: the yeast fitness was not above 0.5.
As to C4A A21U C30U A45G C55A, the yeast fitness was not above 0.5.
For G23C C49A C62A, the yeast fitness was not above 0.5.
Regarding C29A A57U, the yeast fitness was not above 0.5.
The result for G18A A36U C61A reads not above 0.5.
The result for U8A A15C G18C C49U U64A reads not above 0.5.
As for U19G C30U C49G G52A, the yeast fitness is not above 0.5.
The figure for U19G C49G U59C A69C is not above 0.5.
The figure for C4A U7A U8G A45C A65G C66G is not above 0.5; for C61G C66U A69U it is not above 0.5; for A42U C49G U53A it is not above 0.5.
The result for U16C G25U U32C A69C reads not above 0.5.
For A37C U59C, the yeast fitness was found to be 0.699.
The result for C30G G52C G63C reads not above 0.5; that for G44A A65C, 1.05; that for A14C U28C A45U U47C A70C, not above 0.5.
The result for G25C G51A reads 1.01; that for C4U G23C A36G C66U, not above 0.5.
The result for A20U A21U reads 0.61; that for G6C G9A G17U C24A A45C, not above 0.5.
For the variant C11U A37U A45C C55G C61A, the yeast fitness was not above 0.5.
Take G10A U35G A37U: the yeast fitness came to 0.551.
The result for C5U C27U A40C A57C C61A G67A reads not above 0.5.
The result for A20C C30G G68A reads not above 0.5; that for U8C C27U A40G G44A C62A, not above 0.5; that for C5U G17C C29A C46G U53C C55G, not above 0.5.
For the variant C34A A42G, the yeast fitness was determined as 0.676.
Regarding C11G C24G C60U, the yeast fitness is not above 0.5.
As to G18C C31U C33G G50C C62U, the yeast fitness is not above 0.5.
The result for U3A A14G G48C reads not above 0.5; that for U28A A65U, 0.642.
The result for U2G C34A C49A G63U G67A reads not above 0.5; that for G10C C11U A20C C31U A57U, not above 0.5.
With C31G U32A C46G C55A, the yeast fitness was not above 0.5.
G9C C31U U47A A57C A69C: the yeast fitness was not above 0.5.
U13G A20U G52C C61G: the yeast fitness was not above 0.5.
The result for U26G U32C A45G C46U U53G C66U A69U reads not above 0.5.
The result for A14G A37U G63C reads not above 0.5; that for C33U A43C, 0.656.
The figure for G10C C33A C62G is not above 0.5; for G23A C33G C49A it is not above 0.5.
With C5G C11G U35C G67A, the yeast fitness is not above 0.5.
The figure for U7A A40C is 0.724; for C22A C46G G52A A65U it is not above 0.5; for C11A C31A U32C G44C A65G it is not above 0.5.
With G25A C60G C61U, the yeast fitness was not above 0.5.
The result for G10C C22A C24G A65C C66U reads not above 0.5; that for C24U A43C G51U, not above 0.5.
The figure for U32A A37G C60A A70G is not above 0.5.
